PMC4646279
No constants are given. Whether binding was seen depends on the method and setting. Binding seen in cells or lysates may run through a third protein. Some results given as binding are weak or reduced against the parent protein; the word gives no strength. For part of these data: Sequences can lack the tags named with a protein. Values belong to the binder of their own block, whether it stands above or below them.

Sequences of proteins named here, by UniProt entry; tags and fusion partners are left off. Residues count along the entry.
UniProt P07384: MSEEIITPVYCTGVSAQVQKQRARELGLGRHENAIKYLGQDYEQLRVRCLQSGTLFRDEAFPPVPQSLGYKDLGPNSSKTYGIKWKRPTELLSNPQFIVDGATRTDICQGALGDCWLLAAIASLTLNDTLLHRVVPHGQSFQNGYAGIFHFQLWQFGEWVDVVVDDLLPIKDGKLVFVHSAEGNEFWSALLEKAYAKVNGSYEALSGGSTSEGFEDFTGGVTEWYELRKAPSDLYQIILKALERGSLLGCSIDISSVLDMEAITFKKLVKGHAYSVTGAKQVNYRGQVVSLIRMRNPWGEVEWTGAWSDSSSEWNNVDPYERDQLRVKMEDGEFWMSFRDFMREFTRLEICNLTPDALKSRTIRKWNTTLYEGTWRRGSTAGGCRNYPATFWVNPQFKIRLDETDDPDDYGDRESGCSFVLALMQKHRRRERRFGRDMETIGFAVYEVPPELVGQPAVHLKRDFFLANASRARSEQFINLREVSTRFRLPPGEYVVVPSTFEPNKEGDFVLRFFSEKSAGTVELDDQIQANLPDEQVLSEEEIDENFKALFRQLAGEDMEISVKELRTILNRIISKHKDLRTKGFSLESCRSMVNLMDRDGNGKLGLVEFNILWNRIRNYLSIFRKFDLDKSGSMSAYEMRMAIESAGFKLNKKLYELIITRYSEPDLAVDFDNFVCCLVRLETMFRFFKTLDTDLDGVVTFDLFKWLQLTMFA
UniProt P17655, residues 20-700: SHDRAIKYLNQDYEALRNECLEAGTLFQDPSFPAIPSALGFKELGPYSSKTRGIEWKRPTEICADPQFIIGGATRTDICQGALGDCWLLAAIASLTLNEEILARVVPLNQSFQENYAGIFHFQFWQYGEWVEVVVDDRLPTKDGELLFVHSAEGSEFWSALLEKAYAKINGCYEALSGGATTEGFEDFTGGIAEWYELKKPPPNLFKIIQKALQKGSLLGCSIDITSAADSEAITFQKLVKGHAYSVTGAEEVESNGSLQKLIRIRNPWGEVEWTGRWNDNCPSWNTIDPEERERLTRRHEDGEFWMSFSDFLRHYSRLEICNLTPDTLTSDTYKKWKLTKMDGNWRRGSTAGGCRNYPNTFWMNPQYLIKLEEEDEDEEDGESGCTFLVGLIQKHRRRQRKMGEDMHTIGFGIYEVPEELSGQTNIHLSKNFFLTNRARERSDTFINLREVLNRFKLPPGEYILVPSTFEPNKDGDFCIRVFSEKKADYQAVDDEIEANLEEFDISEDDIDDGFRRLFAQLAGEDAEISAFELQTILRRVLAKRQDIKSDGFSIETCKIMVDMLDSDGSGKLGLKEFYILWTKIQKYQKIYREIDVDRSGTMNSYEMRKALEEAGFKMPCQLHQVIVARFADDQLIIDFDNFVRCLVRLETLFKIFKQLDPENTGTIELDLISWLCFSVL

What was measured:
FLAG-ArgRSΔN63 (human) = target: T1, FLAG-ArgRSΔN63 (human) (UniProt P54136); assay: co-IP; 293T extracts overexpressing FLAG-tagged full-length or truncated ArgRS, p43 or GlnRS; IP with FLAG antibody, Western blot with antibodies against MSC components
T1 sequence: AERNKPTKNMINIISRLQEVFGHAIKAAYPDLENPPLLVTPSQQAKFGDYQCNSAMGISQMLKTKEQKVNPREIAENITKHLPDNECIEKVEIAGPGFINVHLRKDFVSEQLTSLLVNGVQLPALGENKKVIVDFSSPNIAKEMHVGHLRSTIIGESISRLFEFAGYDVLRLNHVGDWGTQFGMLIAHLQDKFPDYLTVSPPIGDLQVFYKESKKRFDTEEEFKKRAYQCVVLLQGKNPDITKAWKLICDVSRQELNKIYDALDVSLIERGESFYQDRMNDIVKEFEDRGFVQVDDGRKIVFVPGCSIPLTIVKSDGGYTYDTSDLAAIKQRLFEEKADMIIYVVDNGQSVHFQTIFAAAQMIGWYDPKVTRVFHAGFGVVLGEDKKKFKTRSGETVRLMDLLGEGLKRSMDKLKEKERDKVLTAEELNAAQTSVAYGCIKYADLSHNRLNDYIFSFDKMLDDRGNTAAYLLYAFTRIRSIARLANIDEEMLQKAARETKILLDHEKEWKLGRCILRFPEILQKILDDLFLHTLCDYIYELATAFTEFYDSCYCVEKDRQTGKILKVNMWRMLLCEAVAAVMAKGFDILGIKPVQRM

FLAG-p43 (human), Q12904 = target: T2, FLAG-p43 (human), Q12904; assay: co-IP; MSC purification: 293T transfected with FLAG-ArgRS or FLAG-p43, lysate on anti-FLAG M2 affinity gel 2 h at 4 °C, washed with PBS four times, eluted with 3xFLAG peptides; Coomassie staining and Western blots; conditions: remark: other sources report otherwise
T2 chain: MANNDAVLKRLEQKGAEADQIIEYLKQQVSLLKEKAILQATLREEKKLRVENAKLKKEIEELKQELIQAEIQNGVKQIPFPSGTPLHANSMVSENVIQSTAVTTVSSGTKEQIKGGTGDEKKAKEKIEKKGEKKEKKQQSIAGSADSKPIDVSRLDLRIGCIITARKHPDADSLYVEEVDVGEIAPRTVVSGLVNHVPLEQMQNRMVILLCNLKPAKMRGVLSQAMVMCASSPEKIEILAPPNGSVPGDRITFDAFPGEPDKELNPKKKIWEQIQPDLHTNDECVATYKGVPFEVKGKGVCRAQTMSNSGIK

[1] = target: T3, FLAG-ArgRS (human), P54136; assay: as above; conditions: remark: other sources report otherwise
T3 chain: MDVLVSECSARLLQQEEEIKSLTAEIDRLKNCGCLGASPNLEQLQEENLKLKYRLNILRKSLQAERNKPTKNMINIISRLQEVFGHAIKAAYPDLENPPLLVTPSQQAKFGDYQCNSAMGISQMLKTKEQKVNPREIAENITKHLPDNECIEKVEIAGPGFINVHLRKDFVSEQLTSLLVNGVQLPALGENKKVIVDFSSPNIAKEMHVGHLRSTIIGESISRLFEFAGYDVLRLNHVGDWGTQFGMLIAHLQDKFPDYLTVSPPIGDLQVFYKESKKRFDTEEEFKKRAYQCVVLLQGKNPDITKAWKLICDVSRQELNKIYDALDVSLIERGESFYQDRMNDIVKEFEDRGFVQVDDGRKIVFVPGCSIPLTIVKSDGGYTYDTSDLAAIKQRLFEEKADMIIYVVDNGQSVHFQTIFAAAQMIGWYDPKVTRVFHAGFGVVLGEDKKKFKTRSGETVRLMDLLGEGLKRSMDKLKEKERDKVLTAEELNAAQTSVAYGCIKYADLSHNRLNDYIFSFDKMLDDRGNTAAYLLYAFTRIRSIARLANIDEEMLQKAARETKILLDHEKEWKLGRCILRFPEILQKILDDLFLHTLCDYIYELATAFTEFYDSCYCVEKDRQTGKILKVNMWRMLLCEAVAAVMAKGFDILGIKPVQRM

[2] = target: T3, FLAG-ArgRS (human), P54136; assay: co-IP; 293T extracts overexpressing FLAG-tagged full-length or truncated ArgRS, p43 or GlnRS; IP with FLAG antibody, Western blot with antibodies against MSC components; conditions: remark: other sources report otherwise
FLAG-calpain 1 (human) = FLAG-calpain 1 (human) (UniProt P07384); assay: co-IP; FLAG-calpain 2 or FLAG-calpain 1 overexpressed in 293T; IP with anti-FLAG antibody, Western blot with antibodies against endogenous MSC components; mouse IgG as negative control
FLAG-calpain 2 (human) = FLAG-calpain 2 (human) (UniProt P17655); assay: as above
[3] = target: T4, FLAG-EPRS (human), P07814; assay: co-IP; 293T co-overexpressing FLAG-EPRS, MetRS-His6 and AspRS-Myc; purified with anti-FLAG affinity gel; Western blot; conditions: remark: other sources report otherwise
T4 chain: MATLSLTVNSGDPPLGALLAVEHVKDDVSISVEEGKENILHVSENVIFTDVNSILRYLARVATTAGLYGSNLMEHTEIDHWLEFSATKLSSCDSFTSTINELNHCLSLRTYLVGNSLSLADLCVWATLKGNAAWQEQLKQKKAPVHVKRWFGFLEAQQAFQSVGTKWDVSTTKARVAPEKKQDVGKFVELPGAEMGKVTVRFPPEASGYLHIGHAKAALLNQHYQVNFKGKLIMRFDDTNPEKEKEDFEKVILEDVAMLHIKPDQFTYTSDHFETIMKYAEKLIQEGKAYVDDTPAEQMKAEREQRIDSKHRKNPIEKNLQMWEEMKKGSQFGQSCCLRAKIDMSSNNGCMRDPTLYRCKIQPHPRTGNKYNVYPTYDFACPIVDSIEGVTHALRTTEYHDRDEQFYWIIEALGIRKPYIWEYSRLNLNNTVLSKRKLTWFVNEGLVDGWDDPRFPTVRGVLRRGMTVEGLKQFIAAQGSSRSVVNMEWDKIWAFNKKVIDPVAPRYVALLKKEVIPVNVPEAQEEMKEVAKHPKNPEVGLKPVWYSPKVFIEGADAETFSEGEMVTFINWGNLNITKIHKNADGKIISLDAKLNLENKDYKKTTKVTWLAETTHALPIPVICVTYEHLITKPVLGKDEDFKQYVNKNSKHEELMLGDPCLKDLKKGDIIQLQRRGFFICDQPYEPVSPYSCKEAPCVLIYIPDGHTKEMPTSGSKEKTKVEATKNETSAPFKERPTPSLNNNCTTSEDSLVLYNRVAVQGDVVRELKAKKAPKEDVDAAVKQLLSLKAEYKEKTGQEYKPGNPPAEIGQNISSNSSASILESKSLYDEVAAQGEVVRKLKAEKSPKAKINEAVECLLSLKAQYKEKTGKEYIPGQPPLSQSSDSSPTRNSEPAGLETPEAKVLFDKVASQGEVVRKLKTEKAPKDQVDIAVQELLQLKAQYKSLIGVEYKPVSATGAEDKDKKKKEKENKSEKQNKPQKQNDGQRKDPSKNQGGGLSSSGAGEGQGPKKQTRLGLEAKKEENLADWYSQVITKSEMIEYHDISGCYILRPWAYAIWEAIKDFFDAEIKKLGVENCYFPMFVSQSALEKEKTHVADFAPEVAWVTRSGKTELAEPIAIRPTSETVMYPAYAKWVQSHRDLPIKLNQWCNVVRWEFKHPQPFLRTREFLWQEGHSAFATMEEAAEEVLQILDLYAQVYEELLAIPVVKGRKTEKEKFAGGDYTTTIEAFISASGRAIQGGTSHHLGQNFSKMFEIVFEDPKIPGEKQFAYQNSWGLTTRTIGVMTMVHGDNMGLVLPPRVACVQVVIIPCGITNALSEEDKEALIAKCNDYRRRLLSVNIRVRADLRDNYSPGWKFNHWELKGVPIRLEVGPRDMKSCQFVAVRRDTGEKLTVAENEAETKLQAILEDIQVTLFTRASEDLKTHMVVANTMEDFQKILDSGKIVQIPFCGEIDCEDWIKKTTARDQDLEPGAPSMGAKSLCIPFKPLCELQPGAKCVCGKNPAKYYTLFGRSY

B1: p38, endogenous (protein, UniProt Q13155 1-320)
chain: MPMYQVKPYHGGGAPLRVELPTCMYRLPNVHGRSYGPAPGAGHVQEESNLSLQALESRQDDILKRLYELKAAVDGLSKMIQTPDADLDVTNIIQADEPTTLTTNALDLNSVLGKDYGALKDIVINANPASPPLSLLVLHRLLCEHFRVLSTVHTHSSVKSVPENLLKCFGEQNKKQPRQDYQLGFTLIWKNVPKTQMKFSIQTMCPIEGEGNIARFLFSLFGQKHNAVNATLIDSWVDIAIFQLKEGSSKEKAAVFRSMNSALGKSPWLAGNELTVADVVLWSVLQQIGGCSVTVPANVQRWMRSCENLAPFNTALKLLK
binding (FLAG-ArgRSΔN63 (human)): no binding

B4: AspRS-Myc, P14868 1-501 (enzyme)
chain: MPSASASRKSQEKPREIMDAAEDYAKERYGISSMIQSQEKPDRVLVRVRDLTIQKADEVVWVRARVHTSRAKGKQCFLVLRQQQFNVQALVAVGDHASKQMVKFAANINKESIVDVEGVVRKVNQKIGSCTQQDVELHVQKIYVISLAEPRLPLQLDDAVRPEAEGEEEGRATVNQDTRLDNRVIDLRTSTSQAVFRLQSGICHLFRETLINKGFVEIQTPKIISAASEGGANVFTVSYFKNNAYLAQSPQLYKQMCICADFEKVFSIGPVFRAEDSNTHRHLTEFVGLDIEMAFNYHYHEVMEEIADTMVQIFKGLQERFQTEIQTVNKQFPCEPFKFLEPTLRLEYCEALAMLREAGVEMGDEDDLSTPNEKLLGHLVKEKYDTDFYILDKYPLAVRPFYTMPDPRNPKQSNSYDMFMRGEEILSGAQRIHDPQLLTERALHHGIDLEKIKAYIDSFRFGAPPHAGGGIGLERVTMLFLGLHNVRQTSMFPRDPKRLTP
binding [3]: binds

B5: MetRS-His6, P56192 1-900 (enzyme)
chain: MRLFVSDGVPGCLPVLAAAGRARGRAEVLISTVGPEDCVVPFLTRPKVPVLQLDSGNYLFSTSAICRYFFLLSGWEQDDLTNQWLEWEATELQPALSAALYYLVVQGKKGEDVLGSVRRALTHIDHSLSRQNCPFLAGETESLADIVLWGALYPLLQDPAYLPEELSALHSWFQTLSTQEPCQRAAETVLKQQGVLALRPYLQKQPQPSPAEGRAVTNEPEEEELATLSEEEIAMAVTAWEKGLESLPPLRPQQNPVLPVAGERNVLITSALPYVNNVPHLGNIIGCVLSADVFARYSRLRQWNTLYLCGTDEYGTATETKALEEGLTPQEICDKYHIIHADIYRWFNISFDIFGRTTTPQQTKITQDIFQQLLKRGFVLQDTVEQLRCEHCARFLADRFVEGVCPFCGYEEARGDQCDKCGKLINAVELKKPQCKVCRSCPVVQSSQHLFLDLPKLEKRLEEWLGRTLPGSDWTPNAQFITRSWLRDGLKPRCITRDLKWGTPVPLEGFEDKVFYVWFDATIGYLSITANYTDQWERWWKNPEQVDLYQFMAKDNVPFHSLVFPCSALGAEDNYTLVSHLIATEYLNYEDGKFSKSRGVGVFGDMAQDTGIPADIWRFYLLYIRPEGQDSAFSWTDLLLKNNSELLNNLGNFINRAGMFVSKFFGGYVPEMVLTPDDQRLLAHVTLELQHYHQLLEKVRIRDALRSILTISRHGNQYIQVNEPWKRIKGSEADRQRAGTVTGLAVNIAALLSVMLQPYMPTVSATIQAQLQLPPPACSILLTNFLCTLPAGHQIGTVSPLFQKLENDQIESLRQRFGGGQAKTSPKPAVVETVTTAKPQQIQALMDEVTKQGNIVRELKAQKADKNEVAAEVAKLLDLKKQLAVAEGKPPEAPKGKKKK
binding [3]: binds

More lines, now with the values ahead:

binding (FLAG-p43 (human), Q12904): binds
binding [1]: binds
binding [2]: binds
B2: p43, endogenous, Q12904 1-312 (protein)
chain: MANNDAVLKRLEQKGAEADQIIEYLKQQVSLLKEKAILQATLREEKKLRVENAKLKKEIEELKQELIQAEIQNGVKQIPFPSGTPLHANSMVSENVIQSTAVTTVSSGTKEQIKGGTGDEKKAKEKIEKKGEKKEKKQQSIAGSADSKPIDVSRLDLRIGCIITARKHPDADSLYVEEVDVGEIAPRTVVSGLVNHVPLEQMQNRMVILLCNLKPAKMRGVLSQAMVMCASSPEKIEILAPPNGSVPGDRITFDAFPGEPDKELNPKKKIWEQIQPDLHTNDECVATYKGVPFEVKGKGVCRAQTMSNSGIK

binding (FLAG-calpain 1 (human)): no binding
binding (FLAG-calpain 2 (human)): binds
binding (FLAG-ArgRSΔN63 (human)): no binding
B3: p43, endogenous (protein, UniProt Q12904 1-312)
chain: MANNDAVLKRLEQKGAEADQIIEYLKQQVSLLKEKAILQATLREEKKLRVENAKLKKEIEELKQELIQAEIQNGVKQIPFPSGTPLHANSMVSENVIQSTAVTTVSSGTKEQIKGGTGDEKKAKEKIEKKGEKKEKKQQSIAGSADSKPIDVSRLDLRIGCIITARKHPDADSLYVEEVDVGEIAPRTVVSGLVNHVPLEQMQNRMVILLCNLKPAKMRGVLSQAMVMCASSPEKIEILAPPNGSVPGDRITFDAFPGEPDKELNPKKKIWEQIQPDLHTNDECVATYKGVPFEVKGKGVCRAQTMSNSGIK
